The test in a line: qHTS Assay for Modulators of Lamin A Splicing. Conditions: HeLa LMNA splicing GFP/RFP minigene ratio, 48 h. The gist of the method:
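Read-out is the ratio of GFP to DsRed2 object intensity, acquired by 488 nm laser-scanning cytometry on HeLa lamin A-EGFP minigene reporter cells. Compound incubation 48 hrs at 37 °C in Opti-MEM with 2% FBS; DMSO 0.5% final.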
For orientation: In qHTS, concentration-response curves come from the screen itself.

The mark [1] stands for this setting: measured here: RFP viability control channel.
Setting [2] is: measured here: GFP splicing reporter channel.

This is one part of the list. Further columns of the screen follow, without active or inactive calls. Compounds called inactive in the main read-out are mostly missing here. The note in brackets gives the kind of curve behind each potency; many fits are weak.

Broadly, the AC50 is the midpoint of the concentration-response curve, whichever way the signal moves.

Consider `O=C(Nc1cccnc1)c1ccc(COc2ccccc2Br)o1`, for which the concentration at half-maximal activity (AC50) under setting [1] is 35.5 µM [rising, single point].
On to `O=C(CC1N=C2c3ccccc3N=C(SCc3ccc(F)cc3)N2C1=O)NCc1ccc2c(c1)OCO2` (stereo not given), for which the AC50 under setting [2] was 0.708 µM [rising, full curve, poor fit].
In the case of `CCCCNC1C(CC)C(CCC)C(C#N)(C#N)C1(C#N)C#N` (stereo not given), under setting [1], the half-maximal activity concentration (AC50) is 12.6 µM [rising, partial curve].
On the same count and under the same terms, for `O=C(CSc1nc(-c2ccccc2)nc2ccccc12)Nc1cccc(C(=O)O)c1` the value was 14.1 µM [rising, partial curve]; for `CC(NS(=O)(=O)c1ccc(Br)cc1)C(c1cccs1)N1CCOCC1` (stereo not given), 1.58 µM [rising, partial curve, poor fit].
For `COc1cccc(Cn2c(=O)c(-c3ccc(Cl)cc3)nc3cnc(OC)nc32)c1`, the AC50 was 3.55 µM [falling, full curve] under setting [2] and 3.98 µM [falling, full curve] under setting [1].
As to `COCCn1c(SCc2nc3ccccc3c(=O)[nH]2)nc2ccccc2c1=O`, the concentration at half-maximal activity (AC50) under setting [1] was 0.0224 µM [falling, full curve, poor fit].
On the same count and under the same terms, next, `CC(C)(C)c1ccc(C(=O)N/N=C/c2cccc(Cl)c2)cc1`: 31.6 µM [rising, single point].
Consider `CN(C)c1ccc(C2CC(c3cccc(NS(C)(=O)=O)c3)=NN2C(=O)c2ccccc2)cc1` (stereo not given), for which the AC50 is, setting by setting: under setting [2], 0.708 µM [falling, full curve]; under setting [1], 0.0708 µM [falling, full curve, poor fit].
Consider `COc1ccc(OCCCc2c(C)n[nH]c2C)cc1`, for which the AC50 was 12.6 µM [rising, single point] under setting [2] and 22.4 µM [rising, partial curve] under setting [1].
Turning to `O=C(CNC(=O)c1ccco1)OCC(=O)c1ccccc1`, the AC50 under setting [1] was 7.08 µM [falling, partial curve, poor fit].
As to `CN(CC(=O)Nc1ccc(F)cc1)c1ccc(S(=O)(=O)N2CCCCC2)cc1[N+](=O)[O-]`, the AC50 by setting is: under setting [2], 10 µM [rising, partial curve, poor fit]; under setting [1], 17.8 µM [rising, partial curve].
In the case of `O=C(O)c1ccccc1-c1ccccc1C(=O)Nc1cccc(O)c1`, the concentration at half-maximal activity (AC50) under setting [2] was 0.355 µM [rising, single point].
`N#C/C(=C\c1ccc(N2CCOCC2)cc1)c1ccccc1`: the AC50 under setting [2] is 14.1 µM [rising, partial curve] and the concentration at half-maximal activity (AC50) under setting [1] was 35.5 µM [rising, partial curve].
For `Cc1ccc(N2C(N)=C(C#N)C(c3cccs3)C3=C2CC(C)(C)CC3=O)cc1` (stereo not given), under setting [1], the AC50 is 22.4 µM [rising, single point].
`O=C(c1ccccc1F)N1CCN(C2CCC(c3ccccc3)CC2)CC1` (stereo not given): the AC50 is 3.55 µM [falling, partial curve, poor fit] under setting [2] and 28.2 µM [falling, partial curve] under setting [1].
Consider `COc1ccccc1/C=C/C(=O)Oc1cccc2cccnc12`, for which, under setting [2], the concentration at half-maximal activity (AC50) is 2.24 µM [falling, partial curve].
For `CCOC(=O)NC(=O)COC(=O)c1ccc(Sc2ncn[nH]2)c([N+](=O)[O-])c1`, under setting [1], the half-maximal activity concentration (AC50) is 2.24 µM [rising, partial curve, poor fit].
Regarding `O=C(N/N=C/c1cc([N+](=O)[O-])ccc1O)NC12CC3CC(CC(C3)C1)C2`, the AC50 reads like this: under setting [2], 35.5 µM [rising, single point]; under setting [1], 35.5 µM [rising, single point].
For the molecule `CCNc1ccc(Br)cc(C(=O)/C=C/c2c(Cl)cccc2Cl)c1=O`, the AC50 was 35.5 µM [falling, single point] under setting [2] and 28.2 µM [falling, single point] under setting [1].
Regarding `Cc1ccc(CSC2=NCCN2C(=O)c2ccc(S(=O)(=O)N(C)C)cc2)cc1`, the concentration at half-maximal activity (AC50) is 0.794 µM [rising, single point] under setting [2] and 1.26 µM [rising, single point] under setting [1].
`O=C(NC(=S)Nc1ccc(N2CCCCC2)c(Cl)c1)c1ccc2c(c1)OCCO2`: the AC50 was 12.6 µM [falling, partial curve] under setting [2] and 11.2 µM [falling, partial curve] under setting [1].
In the case of `O=C(Cn1cc(SCc2ccc(F)cc2)c2ccccc21)N1CCOCC1`, the AC50 under setting [1] is 25.1 µM [rising, single point].
`Cc1cccc(Nc2nc(-c3c(C)nc4ccccn34)cs2)c1`: the AC50 is, setting by setting: under setting [2], 35.5 µM [falling, single point]; under setting [1], 22.4 µM [falling, partial curve].
Take `Cc1c(Br)c([N+](=O)[O-])nn1CC(=O)Nc1ccc(C(C)C)cc1`: the half-maximal activity concentration (AC50) under setting [1] was 0.00891 µM [falling, full curve, poor fit].
The same measure, in the same setting: next, `CC1(C)Oc2ccc(C#N)cc2[C@@H](N2CCCC2=O)[C@@H]1O`: 0.0355 µM [falling, full curve, poor fit].
On to `Cc1nc2cc(NC(=O)N3CCCC3)ccc2n1C`, for which the half-maximal activity concentration (AC50) under setting [2] is 11.2 µM [rising, partial curve, poor fit].
Regarding `CN(C)c1nnnn1Cc1ccccc1`, the AC50 under setting [1] is 25.1 µM [falling, partial curve].
Turning to `O=C(NCCc1c[nH]c2ccccc12)C(=O)NCC1OCCN1S(=O)(=O)c1ccc(Cl)cc1` (stereo not given), the concentration at half-maximal activity (AC50) under setting [1] was 14.1 µM [rising, partial curve].
Still for that read-out and setting: next, `CCOC(=O)c1[nH]c2c(c1C)C(=O)CC(c1ccc(F)cc1)C2` (stereo not given): 8.91 µM [rising, partial curve].
For the molecule `CC(C)(C)c1ccc(C(=O)Nc2ccc([N+](=O)[O-])cn2)cc1`, the AC50 by setting is: under setting [2], 6.31 µM [rising, full curve, poor fit]; under setting [1], 14.1 µM [rising, partial curve, poor fit].
For `CCCNC(=O)OC[C@H]1O[C@H](CCO/N=C(\C)CCN2CCc3nc(-c4ccccc4)c(-c4ccccc4)cc3C2)C=C[C@@H]1Oc1ccc(OC)cc1`, the AC50 is, setting by setting: under setting [2], 3.55 µM [rising, full curve]; under setting [1], 14.1 µM [rising, partial curve].
Take `Cn1cc([N+](=O)[O-])c(C(=O)Nc2nccs2)n1`: the AC50 is 22.4 µM [falling, single point] under setting [2] and 2.82 µM [falling, full curve, poor fit] under setting [1].
With `CC(C)(C)OC(=O)N1CCC[C@H]1c1nnc(SCc2c(Cl)cccc2Cl)o1`, the AC50 reads like this: under setting [2], 22.4 µM [rising, partial curve, poor fit]; under setting [1], 11.2 µM [rising, partial curve, poor fit].
Turning to `CCOC(=O)c1ccc(NC(=O)CN2C(=O)CC(c3ccc(C)c(C)c3)=Nc3ccccc32)cc1`, the half-maximal activity concentration (AC50) runs as follows: under setting [2], 0.0251 µM [falling, full curve]; under setting [1], 4.47 µM [falling, full curve, poor fit].
In the case of `Cc1ccc(-c2noc(CSc3nnnn3-c3ccccc3)n2)cc1`, the AC50 reads like this: under setting [2], 17.8 µM [rising, single point]; under setting [1], 17.8 µM [rising, single point].
For the molecule `O=S(=O)(CC(CN1CCCC1)N1CCCC1)c1ccc2ccccc2c1` (stereo not given), the half-maximal activity concentration (AC50) by setting is: under setting [2], 22.4 µM [falling, partial curve, poor fit]; under setting [1], 2.82 µM [rising, single point].
Consider `CCCCC(=O)Nc1cccc(-c2cn3ccccc3n2)c1`, for which the AC50 under setting [1] was 12.6 µM [rising, partial curve].
In the case of `Cn1c(-n2cccc2)c(-c2c(-c3ccc(F)cc3)[nH]c3c2c(=O)[nH]c(=O)n3C)c(=O)[nH]c1=O`, the half-maximal activity concentration (AC50) under setting [2] was 0.01 µM [falling, full curve, poor fit].
For `CC1CCCN(C(=O)Cn2c(=O)n(CC3CCC(C(=O)NC(C)C)CC3)c(=O)c3sccc32)C1` (stereo not given), the half-maximal activity concentration (AC50) under setting [2] is 2.82 µM [rising, partial curve, poor fit] and the AC50 under setting [1] is 0.0251 µM [rising, full curve, poor fit].
In the case of `CN1C(=O)c2ccccc2Sc2ccc(NC(=O)COc3ccc(Cl)cc3)cc21`, under setting [1], the AC50 was 12.6 µM [rising, single point].
`Cc1ccc(S(=O)(=O)Nc2cccc(-c3cn4ccsc4n3)c2)cc1`: the AC50 was 22.4 µM [rising, single point] under setting [2] and 12.6 µM [rising, partial curve] under setting [1].
As for `CSc1ccc(-c2nnn(Cc3ccc(C)cc3)n2)cc1`, under setting [1], the AC50 is 31.6 µM [rising, single point].
On the same count and under the same terms, next, `CCn1c(NC(=O)Nc2ccccc2OC)nc2ccccc21`: 10 µM [rising, partial curve, poor fit].
On to `COc1ccc(-n2c(Cc3cccn3C)nnc2SCC(=O)Nc2cc(Cl)ccc2OC)cc1`, for which the AC50 under setting [2] is 35.5 µM [rising, single point] and the AC50 under setting [1] was 35.5 µM [rising, single point].
Turning to `Cc1ccccc1CS(=O)(=O)c1nnc([C@H](Cc2ccccc2)NC(=O)OC(C)(C)C)o1`, the half-maximal activity concentration (AC50) reads like this: under setting [2], 35.5 µM [falling, single point]; under setting [1], 11.2 µM [falling, single point].
As for `Cc1cc(F)ccc1S(=O)(=O)Nc1ccccc1C(=O)NCc1cccnc1`, the AC50 under setting [2] is 0.00316 µM [falling, full curve, poor fit].
On to `N[C@@H](CCC(=O)N[C@H](CSN=O)C(=O)NCC(=O)O)C(=O)O`, for which the half-maximal activity concentration (AC50) under setting [1] is 5.62 µM [falling, partial curve, poor fit].
Still for that read-out and setting: next, `CCOC(=O)Cc1[nH]nc2c1C(c1ccsc1)C(C#N)=C(N)O2` (stereo not given): 12.6 µM [falling, partial curve, poor fit].
As for `CCOC(=O)c1[nH]c(C)c(C(=O)N2CCc3ccccc32)c1C`, the AC50 reads like this: under setting [2], 1.12 µM [falling, full curve]; under setting [1], 1.26 µM [falling, full curve].
`c1csc(-c2nnsc2-c2nc3ccccc3[nH]2)c1`: the AC50 under setting [2] is 12.6 µM [rising, single point].
Still for that read-out and setting: for `Cc1[nH]n(-c2nc(-c3cccc([N+](=O)[O-])c3)cs2)c(=O)c1C` the value was 0.0398 µM [falling, full curve, poor fit].
